PubChem BioAssay AID720703 – Peter MacCallum Cancer Centre, 2013

Purpose: 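Kinase knock-down screen for links between AT1R and EGFR signalling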 (primary screen)
System: immortalised, SV40-transformed mammary epithelial cells from human, with stable expression of tagged AT1R
Reagents: siRNA pool against human genes, 40 nM siRNA pool per well
Timing: 72 h from transfection to lysis and read-out
Challenge: angiotensin II stimulation (dose and duration not given); EGFR inhibitor AG1478 also listed
Detection: 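ERK1/2 phosphorylation corrected for confluency, given as a robust z-score, mean over two replicate plates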
Direction: phospho-ERK z-score: higher = more ERK phosphorylation after angiotensin II, relative to plate
Hit rule: 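Pools were ordered by robust z-score and 50 top-ranked pools, whether they raised or lowered the signal, were chosen for secondary testing; no numeric threshold was reported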
Calls: active = picked for secondary screen; inactive = not picked
The deposit covers 714 reagents; this is a part drawn at random. Over the whole deposit, 50 (7%) are marked active. 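Chosen pools sit at both extremes, so both low and high scores count as candidates; some pools appear more than once.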 Entries without a mark were called inactive. Reagent sequences are not shown.

With PKN1, how do the results read?
phospho-ERK z-score, replicate mean: -0.75

What did the screen give for PRP4K?
phospho-ERK z-score, replicate mean: 0.13

How did the screen score CLK2?
phospho-ERK z-score, replicate mean: -0.22

How did the screen score PFKFB2?
phospho-ERK z-score, replicate mean: -0.04

For DMPK, what was measured?
phospho-ERK z-score, replicate mean: -0.05

How did the screen score MAGI1?
phospho-ERK z-score, replicate mean: 0.57

How did the screen score KALRN?
phospho-ERK z-score, replicate mean: 0.8

For CDK10, what was measured?
phospho-ERK z-score, replicate mean: 0.09

What is on record for SHPK?
phospho-ERK z-score, replicate mean: -0.92

Which result is listed for PRKCH?
phospho-ERK z-score, replicate mean: -1.19 (active)

Which result is listed for PNKP?
phospho-ERK z-score, replicate mean: -0.1

Which result is listed for SKAP1?
phospho-ERK z-score, replicate mean: -0.38

3 entries from above in another layout.
DMPK
- phospho-ERK z-score, replicate mean: -0.05

MAGI1
- phospho-ERK z-score, replicate mean: 0.57

KALRN
- phospho-ERK z-score, replicate mean: 0.8

Further entries follow.
With HUS1, what was measured?
phospho-ERK z-score, replicate mean: 0.82

With MAP3K13, how do the results read?
phospho-ERK z-score, replicate mean: 2.1

What did the screen give for AK3?
phospho-ERK z-score, replicate mean: -0.81

For CDK20, what was measured?
phospho-ERK z-score, replicate mean: -1.17

Which result is listed for CDKN2B?
phospho-ERK z-score, replicate mean: -0.11

With ATM, what does the deposit list?
phospho-ERK z-score, replicate mean: -0.94

What is on record for TTBK2?
phospho-ERK z-score, replicate mean: 2.78
